{
  "source": "patent US20150218255A1",
  "about": "(US Dept. of Health and Human Services, published 2015)",
  "binders": {"B1": {"name": "human anti-dengue virus antibody scFv m360 (scFv)", "scFv": "QVTLKESGPTLVKRTQTLTLTCTFFGFSLSTSGMRVSWIRQPPGKALEWIARIDWDDDKFYSISLKSRLTISKDTSKNQVVLTMTNMDPVDTATYYCARTPYNWNDGPRGAFDIWGQGTMVTVSSEGGGSGGGASSGGGSQSVLTQPPSVSAAPGQKVTIPCSGSYSNIRNNYVSWYQQLPGTAPKLLIYDDNKRPSGIPDRFSGSKSGTLATLVITGLQSGDEADYYCGTWDSSLSGVVFGGGTKLTVLG", "notes": "also called antibody m360"}, "B2": {"name": "human anti-dengue virus antibody scFv m366 (scFv)", "scFv": "QLQLQESGGGLVQPGGSLRLSCAASGFTFSSYSMNWVRQAPGKRLEWVSSISGSSSYIYYADSVKGRFTISRDNAKNSLYLQMDSLRAEDTAVYYCARYAAGIWTFDIWGQGTTVTVSSGGGGSGGGASGGGGSSYELTQPPSVSVAPGKTASISCGGDNIGRKSVHWFQQKPGQAPVLVLYDDSDRPSGIPARFSGSNSGNTATLTISRVEAGDEADYYCQVWARSSDHPNWVFGGGTKLTVLG", "notes": "also called antibody m366"}, "B3": {"name": "human anti-dengue virus antibody scFv m366.6 (scFv)", "scFv": "B2 scFv with Y32H, V37I, G53S, K65R, A100M, T114M, R210G, H230L", "notes": "also called antibody m366.6"}, "B4": {"name": "human anti-dengue virus antibody scFv m360.6 (scFv)", "scFv": "KVTLKESGPTLVKPRQTLTLTCTFSGFSLSTSGMRVSWVRQPPGKALEWIARIDWDDDKFYSTSLKTRLTISKDTFKNQVVLTMTNMDPVDTAMYYCVRTPYNWNDGPRGALDIWGQGTMVTVSSGGDRSDGGASGGGGSQSMLTQSPSVSAAPGQNVTISCSGDYPNIRNNYVSWYQQLPGAAPKLLIYDNNKRPSGIPDRFSGSKSGTSATLDITGLQTGDEADYYCGAWDSRLSAVVFGGGTKLTVLG", "notes": "also called antibody m360.6"}},
  "key": {"[1]": {"target": "DENV envelope domain III, serotype 2 (antigen of the Biacore assays) (Dengue virus serotype 2 (consensus sequence)) (UniProt P14337)", "assay": "SPR (Biacore)"}, "[2]": {"target": "DENV envelope domain III, serotype 2 (antigen of the Biacore assays) (Dengue virus serotype 2 (consensus sequence)) (UniProt P14337)", "assay": "summary of the examples (SPR)"}},
  "note": "Substitutions are numbered along the chain they refer to. No constants are given. Whether binding was seen depends on the method and setting. Some results given as binding are weak or reduced against the parent protein; the word gives no strength.",
  "data": [
    {"binder": "B1", "values": [
      {"measurement": "binding", "setting": "[1]", "result": "binds"}
    ]},
    {"binder": "B2", "values": [
      {"measurement": "binding", "setting": "[1]", "result": "binds"},
      {"measurement": "binding", "setting": "[2]", "result": "binds"}
    ]},
    {"binder": "B3", "values": [
      {"measurement": "binding", "setting": "[1]", "result": "binds"}
    ]},
    {"binder": "B4", "values": [
      {"measurement": "binding", "setting": "[1]", "result": "binds"}
    ]}
  ]
}
